{
  "sequences": {"note": "The chains behind the UniProt entries cited, without tags or fusion partners. Where a name states a change or a piece, a line headed by the entry shows the natural chain unless it says otherwise.", "UniProt Q00403, whole entry, looked up": "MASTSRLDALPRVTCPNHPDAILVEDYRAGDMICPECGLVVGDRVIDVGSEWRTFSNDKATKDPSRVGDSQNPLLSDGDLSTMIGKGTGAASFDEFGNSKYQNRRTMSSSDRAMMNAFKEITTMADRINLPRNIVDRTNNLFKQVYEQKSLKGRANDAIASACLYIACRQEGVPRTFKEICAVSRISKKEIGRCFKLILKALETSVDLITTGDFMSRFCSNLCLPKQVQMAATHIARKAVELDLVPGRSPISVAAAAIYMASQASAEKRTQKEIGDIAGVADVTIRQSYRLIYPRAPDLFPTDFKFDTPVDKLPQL", "UniProt P07203, whole entry, looked up": "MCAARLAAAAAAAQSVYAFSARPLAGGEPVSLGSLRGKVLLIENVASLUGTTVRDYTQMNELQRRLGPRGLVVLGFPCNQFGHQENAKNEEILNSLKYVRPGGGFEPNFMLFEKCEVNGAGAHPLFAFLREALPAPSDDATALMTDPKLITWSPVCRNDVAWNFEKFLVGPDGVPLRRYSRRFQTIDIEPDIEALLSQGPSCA", "UniProt Q13888": "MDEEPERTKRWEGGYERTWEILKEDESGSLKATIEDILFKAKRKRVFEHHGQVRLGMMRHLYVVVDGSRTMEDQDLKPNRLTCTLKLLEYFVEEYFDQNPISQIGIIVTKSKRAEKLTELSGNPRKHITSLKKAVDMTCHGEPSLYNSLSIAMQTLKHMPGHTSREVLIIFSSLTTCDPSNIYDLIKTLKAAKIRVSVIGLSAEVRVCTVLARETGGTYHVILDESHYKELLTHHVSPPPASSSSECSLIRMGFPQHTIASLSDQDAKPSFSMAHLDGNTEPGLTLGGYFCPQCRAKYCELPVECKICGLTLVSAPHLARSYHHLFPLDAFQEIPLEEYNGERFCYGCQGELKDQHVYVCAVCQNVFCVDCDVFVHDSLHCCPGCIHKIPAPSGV", "UniProt P13807": "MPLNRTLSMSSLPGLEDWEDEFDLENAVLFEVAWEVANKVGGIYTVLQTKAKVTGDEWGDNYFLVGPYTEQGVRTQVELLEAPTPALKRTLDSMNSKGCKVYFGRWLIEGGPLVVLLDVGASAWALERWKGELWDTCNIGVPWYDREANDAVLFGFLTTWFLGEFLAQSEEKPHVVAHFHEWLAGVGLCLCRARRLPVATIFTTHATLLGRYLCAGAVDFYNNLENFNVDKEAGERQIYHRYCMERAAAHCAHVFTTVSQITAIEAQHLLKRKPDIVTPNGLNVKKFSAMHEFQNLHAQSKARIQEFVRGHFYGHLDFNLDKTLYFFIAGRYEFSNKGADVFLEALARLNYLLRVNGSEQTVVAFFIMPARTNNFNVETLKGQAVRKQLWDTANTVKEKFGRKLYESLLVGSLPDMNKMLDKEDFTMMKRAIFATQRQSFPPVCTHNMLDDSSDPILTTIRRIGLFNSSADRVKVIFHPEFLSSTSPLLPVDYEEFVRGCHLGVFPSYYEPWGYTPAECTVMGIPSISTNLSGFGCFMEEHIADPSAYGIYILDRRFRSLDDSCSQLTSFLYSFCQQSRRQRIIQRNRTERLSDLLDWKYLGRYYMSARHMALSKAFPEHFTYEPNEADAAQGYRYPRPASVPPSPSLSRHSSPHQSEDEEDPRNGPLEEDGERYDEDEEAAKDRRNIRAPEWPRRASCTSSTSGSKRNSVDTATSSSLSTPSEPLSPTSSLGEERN", "UniProt P40939": "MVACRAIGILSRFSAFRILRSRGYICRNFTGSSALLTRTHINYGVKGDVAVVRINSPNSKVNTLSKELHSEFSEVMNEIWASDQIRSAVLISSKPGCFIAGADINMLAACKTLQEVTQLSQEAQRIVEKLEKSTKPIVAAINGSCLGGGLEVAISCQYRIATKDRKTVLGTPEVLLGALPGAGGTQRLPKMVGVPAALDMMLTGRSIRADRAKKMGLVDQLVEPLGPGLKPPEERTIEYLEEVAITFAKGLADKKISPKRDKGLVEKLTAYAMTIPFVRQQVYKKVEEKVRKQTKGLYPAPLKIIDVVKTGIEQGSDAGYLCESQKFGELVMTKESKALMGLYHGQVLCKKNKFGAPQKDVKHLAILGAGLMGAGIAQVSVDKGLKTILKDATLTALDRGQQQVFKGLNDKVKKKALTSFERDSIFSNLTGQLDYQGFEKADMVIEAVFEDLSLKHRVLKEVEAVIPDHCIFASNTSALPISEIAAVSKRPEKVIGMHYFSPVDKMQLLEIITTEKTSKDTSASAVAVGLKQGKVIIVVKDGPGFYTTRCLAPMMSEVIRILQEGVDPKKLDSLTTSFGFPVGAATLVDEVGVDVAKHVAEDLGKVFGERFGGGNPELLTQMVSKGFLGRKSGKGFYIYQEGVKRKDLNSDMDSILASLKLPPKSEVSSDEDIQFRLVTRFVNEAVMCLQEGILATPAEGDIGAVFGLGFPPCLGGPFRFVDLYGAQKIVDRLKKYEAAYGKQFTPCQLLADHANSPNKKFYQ", "UniProt P29084": "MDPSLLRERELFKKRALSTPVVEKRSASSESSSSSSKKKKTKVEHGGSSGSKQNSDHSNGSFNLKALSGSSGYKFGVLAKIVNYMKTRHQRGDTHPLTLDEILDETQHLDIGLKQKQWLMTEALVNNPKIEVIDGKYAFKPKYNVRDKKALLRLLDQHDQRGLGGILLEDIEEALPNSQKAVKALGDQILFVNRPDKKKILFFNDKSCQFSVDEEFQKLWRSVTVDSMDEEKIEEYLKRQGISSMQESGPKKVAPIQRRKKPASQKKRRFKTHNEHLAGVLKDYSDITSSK", "UniProt O43824": "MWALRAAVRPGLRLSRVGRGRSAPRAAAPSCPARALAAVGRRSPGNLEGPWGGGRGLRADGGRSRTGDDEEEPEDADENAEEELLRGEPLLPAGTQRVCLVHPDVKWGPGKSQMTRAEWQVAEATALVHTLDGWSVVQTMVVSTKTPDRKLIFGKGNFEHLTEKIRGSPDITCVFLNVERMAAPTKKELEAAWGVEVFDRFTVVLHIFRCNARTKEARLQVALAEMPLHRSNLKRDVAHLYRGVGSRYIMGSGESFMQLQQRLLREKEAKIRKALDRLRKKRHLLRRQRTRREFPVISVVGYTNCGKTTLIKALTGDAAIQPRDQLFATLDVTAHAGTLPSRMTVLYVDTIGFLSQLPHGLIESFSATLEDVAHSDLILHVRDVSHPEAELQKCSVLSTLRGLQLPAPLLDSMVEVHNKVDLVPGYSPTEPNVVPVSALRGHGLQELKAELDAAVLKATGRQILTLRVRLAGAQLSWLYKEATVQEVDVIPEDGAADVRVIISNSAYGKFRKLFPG", "UniProt Q969Y2": "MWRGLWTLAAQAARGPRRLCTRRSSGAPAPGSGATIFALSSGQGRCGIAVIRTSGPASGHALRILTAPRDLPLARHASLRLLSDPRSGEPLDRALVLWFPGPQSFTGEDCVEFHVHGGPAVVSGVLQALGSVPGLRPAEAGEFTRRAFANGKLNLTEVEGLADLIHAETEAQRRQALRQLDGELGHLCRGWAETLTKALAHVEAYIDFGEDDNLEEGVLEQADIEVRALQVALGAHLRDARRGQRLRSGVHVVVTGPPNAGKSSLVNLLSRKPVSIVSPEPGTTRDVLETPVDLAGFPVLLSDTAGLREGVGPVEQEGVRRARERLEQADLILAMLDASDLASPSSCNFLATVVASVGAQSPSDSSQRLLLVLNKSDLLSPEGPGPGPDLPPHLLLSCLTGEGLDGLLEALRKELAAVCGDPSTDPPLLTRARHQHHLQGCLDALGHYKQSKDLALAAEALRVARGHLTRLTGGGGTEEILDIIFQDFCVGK", "UniProt Q9Y5Q9": "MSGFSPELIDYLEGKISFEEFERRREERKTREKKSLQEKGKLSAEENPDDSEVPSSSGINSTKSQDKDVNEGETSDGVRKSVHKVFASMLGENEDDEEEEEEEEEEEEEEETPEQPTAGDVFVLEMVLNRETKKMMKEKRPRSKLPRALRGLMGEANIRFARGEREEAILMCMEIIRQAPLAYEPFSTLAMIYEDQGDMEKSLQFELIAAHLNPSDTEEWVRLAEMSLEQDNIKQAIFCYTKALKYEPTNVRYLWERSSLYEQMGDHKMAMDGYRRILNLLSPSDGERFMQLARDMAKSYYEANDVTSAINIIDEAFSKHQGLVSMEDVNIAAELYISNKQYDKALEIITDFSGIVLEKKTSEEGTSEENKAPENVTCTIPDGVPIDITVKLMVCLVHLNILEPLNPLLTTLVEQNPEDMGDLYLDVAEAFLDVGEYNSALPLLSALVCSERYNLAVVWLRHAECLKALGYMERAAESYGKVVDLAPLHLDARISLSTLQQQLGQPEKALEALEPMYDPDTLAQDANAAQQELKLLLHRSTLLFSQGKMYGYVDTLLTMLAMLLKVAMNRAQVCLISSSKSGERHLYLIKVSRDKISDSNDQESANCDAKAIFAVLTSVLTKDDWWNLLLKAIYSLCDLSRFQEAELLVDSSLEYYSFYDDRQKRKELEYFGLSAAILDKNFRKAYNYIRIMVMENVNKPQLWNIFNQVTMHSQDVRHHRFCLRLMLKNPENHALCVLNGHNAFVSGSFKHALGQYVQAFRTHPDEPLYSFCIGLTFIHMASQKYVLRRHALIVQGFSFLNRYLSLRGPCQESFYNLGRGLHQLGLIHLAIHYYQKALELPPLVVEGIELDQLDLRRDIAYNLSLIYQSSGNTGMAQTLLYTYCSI", "UniProt P00390": "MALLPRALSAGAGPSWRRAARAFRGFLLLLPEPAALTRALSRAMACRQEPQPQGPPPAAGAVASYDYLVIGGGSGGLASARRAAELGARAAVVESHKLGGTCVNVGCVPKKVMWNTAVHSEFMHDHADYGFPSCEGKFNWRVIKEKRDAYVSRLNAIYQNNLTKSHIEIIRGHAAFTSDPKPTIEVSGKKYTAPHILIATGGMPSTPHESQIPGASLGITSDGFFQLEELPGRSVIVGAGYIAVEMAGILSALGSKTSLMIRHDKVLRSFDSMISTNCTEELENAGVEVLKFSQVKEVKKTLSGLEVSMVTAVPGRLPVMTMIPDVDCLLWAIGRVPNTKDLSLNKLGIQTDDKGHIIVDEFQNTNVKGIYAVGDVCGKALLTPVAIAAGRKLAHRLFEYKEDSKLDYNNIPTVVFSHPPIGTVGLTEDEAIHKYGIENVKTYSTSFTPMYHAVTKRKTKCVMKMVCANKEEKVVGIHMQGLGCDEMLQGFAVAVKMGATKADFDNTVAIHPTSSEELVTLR", "UniProt Q92759": "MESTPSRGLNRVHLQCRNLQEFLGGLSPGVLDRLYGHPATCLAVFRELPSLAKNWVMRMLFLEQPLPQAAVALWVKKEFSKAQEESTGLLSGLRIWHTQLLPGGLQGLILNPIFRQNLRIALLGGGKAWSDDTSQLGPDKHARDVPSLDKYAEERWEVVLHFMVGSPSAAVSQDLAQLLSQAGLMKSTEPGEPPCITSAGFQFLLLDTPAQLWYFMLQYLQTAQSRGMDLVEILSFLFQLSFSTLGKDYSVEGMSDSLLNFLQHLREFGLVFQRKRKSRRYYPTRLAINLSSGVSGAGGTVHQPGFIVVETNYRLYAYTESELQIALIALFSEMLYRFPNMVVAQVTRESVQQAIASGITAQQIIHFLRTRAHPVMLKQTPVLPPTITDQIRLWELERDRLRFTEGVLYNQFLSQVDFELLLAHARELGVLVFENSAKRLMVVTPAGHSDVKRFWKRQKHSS", "UniProt Q6IC98": "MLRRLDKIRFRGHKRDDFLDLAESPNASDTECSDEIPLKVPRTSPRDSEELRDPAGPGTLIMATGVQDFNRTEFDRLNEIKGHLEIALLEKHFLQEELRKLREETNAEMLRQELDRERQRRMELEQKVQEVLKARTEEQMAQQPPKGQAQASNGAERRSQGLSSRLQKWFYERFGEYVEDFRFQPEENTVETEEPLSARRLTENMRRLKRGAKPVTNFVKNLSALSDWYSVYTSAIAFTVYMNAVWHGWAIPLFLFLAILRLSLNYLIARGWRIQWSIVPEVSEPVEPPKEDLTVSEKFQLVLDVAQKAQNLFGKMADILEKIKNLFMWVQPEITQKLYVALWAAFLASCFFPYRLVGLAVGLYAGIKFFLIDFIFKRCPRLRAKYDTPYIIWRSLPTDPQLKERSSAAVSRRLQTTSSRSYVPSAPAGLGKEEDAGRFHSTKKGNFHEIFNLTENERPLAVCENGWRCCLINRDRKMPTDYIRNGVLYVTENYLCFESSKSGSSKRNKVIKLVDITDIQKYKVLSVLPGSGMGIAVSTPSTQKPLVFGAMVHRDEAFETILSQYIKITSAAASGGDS"},
  "source": "the supplement of paper PMC12067093",
  "about": "“Discovery and optimisation of a covalent ligand for TRIM25 and its application to targeted protein ubiquitination” (Chemical Science, 2025)",
  "note": "The other results are listed elsewhere or left out.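 Note: competitive profiling in live THP-1 cells: cysteine peptides tagged with an iodoacetamide desthiobiotin (IA-DTB) probe, intensity after compound treatment relative to DMSO-treated cells.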",
  "data": [
    {"compound": "Cc1cc(ccc1-c1ccccc1)C(=O)N1CCCN(CC1)C(=O)CCl [compound 10]", "test": "probe-labelled cysteine peptide fold change vs DMSO (competition) (log2 fold change); higher = less target engagement (more negative = stronger competition)", "conditions": "10 µM; THP-1; incubation time: 4 h", "values": [
      {"target": "GTF2B_Q00403_34+37_AGDMICPECGLVVGDR (UniProt Q00403)", "probe-labelled cysteine peptide fold change": 0.105},
      {"target": "GPX1_P07203_49_VLLIENVASLUGTTVR (UniProt P07203)", "probe-labelled cysteine peptide fold change": 0.118},
      {"target": "GTF2H2_Q13888_139_AVDMTCHGEPSLYNSLSIAMQTLK (UniProt Q13888)", "probe-labelled cysteine peptide fold change": 0.136},
      {"target": "GYS1_P13807_251_AAAHCAHVFTTVSQITAIEAQHLLK (UniProt P13807)", "probe-labelled cysteine peptide fold change": 0.218},
      {"target": "HADHA_P40939_550_CLAPMMSEVIR (UniProt P40939)", "probe-labelled cysteine peptide fold change": 0.11},
      {"target": "GTF2E2_P29084_208_SCQFSVDEEFQK (UniProt P29084)", "probe-labelled cysteine peptide fold change": -0.0167},
      {"target": "GTPBP6_O43824_99_VCLVHPDVK (UniProt O43824)", "probe-labelled cysteine peptide fold change": -0.0638},
      {"target": "GTPBP3_Q969Y2_46_CGIAVIR (UniProt Q969Y2)", "probe-labelled cysteine peptide fold change": -0.0828},
      {"target": "HACE1_Q8IYU2_172_TELLHDLVQHVSDVDVEDAMGQTALHVACQNGHK (UniProt Q8IYU2)", "probe-labelled cysteine peptide fold change": 0.096},
      {"target": "HACL1_Q9UJ83_307_FIQVDICAEELGNNVKPAVTLLGNIHAVTK (UniProt Q9UJ83)", "probe-labelled cysteine peptide fold change": 0.0124},
      {"target": "GTF3C3_Q9Y5Q9_810_GPCQESFYNLGR (UniProt Q9Y5Q9)", "probe-labelled cysteine peptide fold change": -0.005},
      {"target": "GSR_P00390_107_LGGTCVNVGCVPK (UniProt P00390)", "probe-labelled cysteine peptide fold change": -0.0657},
      {"target": "HAT1_O14929_376_CLRPEELTNQMNQIEISMQHEQLEESFQELVEDYRR (UniProt O14929)", "probe-labelled cysteine peptide fold change": -0.229},
      {"target": "GTF2H4_Q92759_16_VHLQCR (UniProt Q92759)", "probe-labelled cysteine peptide fold change": -0.106},
      {"target": "GRAMD4_Q6IC98_463_GNFHEIFNLTENERPLAVCENGWR (UniProt Q6IC98)", "probe-labelled cysteine peptide fold change": 0.224}
    ]}
  ]
}
